Source: patent publication US20150329644A1
Results are given in words; binding and its absence hold for the method and conditions named. In cells and extracts the contact can be indirect. Some binding calls cover weakened binding; strength is not graded here. Tags and fused reporters may be left off the sequences shown.

Target: T1, GST-LSD2 recombinant protein (human) (UniProt Q8NB78)
T1 sequence (looked up): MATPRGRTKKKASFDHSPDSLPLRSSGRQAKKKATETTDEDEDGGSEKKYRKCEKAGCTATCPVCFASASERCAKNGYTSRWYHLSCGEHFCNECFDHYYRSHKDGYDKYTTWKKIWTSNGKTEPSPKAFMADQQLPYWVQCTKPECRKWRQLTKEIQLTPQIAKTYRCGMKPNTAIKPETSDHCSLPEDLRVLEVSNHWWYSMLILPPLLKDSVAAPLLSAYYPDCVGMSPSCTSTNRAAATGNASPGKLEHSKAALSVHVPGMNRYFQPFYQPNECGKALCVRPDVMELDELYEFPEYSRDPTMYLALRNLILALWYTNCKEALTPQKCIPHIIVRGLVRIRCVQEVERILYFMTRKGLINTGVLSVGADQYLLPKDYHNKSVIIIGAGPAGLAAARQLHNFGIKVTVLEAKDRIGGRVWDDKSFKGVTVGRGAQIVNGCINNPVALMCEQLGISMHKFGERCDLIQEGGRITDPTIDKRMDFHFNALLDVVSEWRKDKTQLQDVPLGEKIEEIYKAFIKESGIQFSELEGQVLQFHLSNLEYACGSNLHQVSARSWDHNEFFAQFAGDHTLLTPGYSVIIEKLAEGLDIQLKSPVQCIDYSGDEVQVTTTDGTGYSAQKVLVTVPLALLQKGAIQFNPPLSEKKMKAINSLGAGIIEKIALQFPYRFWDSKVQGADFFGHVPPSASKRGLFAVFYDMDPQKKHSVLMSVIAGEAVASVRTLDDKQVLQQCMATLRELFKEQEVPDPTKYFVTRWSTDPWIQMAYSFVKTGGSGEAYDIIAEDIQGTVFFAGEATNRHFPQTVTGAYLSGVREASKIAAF
Assay: GST pulldown with GST-LSD2, SDS-PAGE, coomassie (FIG. 13D)

binding: binds
B1: Recombinant His-NPAC (His6 tagged full-length NPAC) purified from E. coli (protein)
chain: HHHHHHMAAVSLRLGDLVWGKLGRYPPWPGKIVNPPKDLKKPRGKKCFFVKFFGTEDHAWIKVEQLKPYHAHKEEMIKINKGKRFQQAVDAVEEFLRRAKGKDQTSSHNSSDDKNRRNSSEERSRPNSGDEKRKLSLSEGKVKKNMGEGKKRVSSGSSERGSKSPLKRAQEQSPRKRGRPPKDEKDLTIPESSTVKGMMAGPMAAFKWQPTASEPVKDADPHFHHFLLSQTEKPAVCYQAITKKLKICEEETGSTSIQAADSTAVNGSITPTDKKIGFLGLGLMGSGIVSNLLKMGHTVTVWNRTAEKCDLFIQEGARLGRTPAEVVSTCDITFACVSDPKAAKDLVLGPSGVLQGIRPGKCYVDMSTVDADTVTELAQVIVSRGGRFLEAPVSGNQQLSNDGMLVILAAGDRGLYEDCSSCFQAMGKTSFFLGEVGNAAKMMLIVNMVQGSFMATIAEGLTLAHVTGQSQQTLLDILNQGQLASIFLDQKCQNILQGNFKPDFYLKYIQKDLRLAIALGDAVNHPTPMAAAANEVYKRAKALDQSDNDMSAVYRAYIH
